No constants are given. Whether binding was seen depends on the method and setting. In cells and extracts the contact can be indirect. A yes stands for co-enrichment or nearness to the bait. Other partners may have been found. Where a sequence is shown, tags or fusion partners need not be part of it.
Molecular target: T1, wild-type FOXN1 (human), FLAG- or myc-tagged (human) (UniProt O15353)
T1 sequence: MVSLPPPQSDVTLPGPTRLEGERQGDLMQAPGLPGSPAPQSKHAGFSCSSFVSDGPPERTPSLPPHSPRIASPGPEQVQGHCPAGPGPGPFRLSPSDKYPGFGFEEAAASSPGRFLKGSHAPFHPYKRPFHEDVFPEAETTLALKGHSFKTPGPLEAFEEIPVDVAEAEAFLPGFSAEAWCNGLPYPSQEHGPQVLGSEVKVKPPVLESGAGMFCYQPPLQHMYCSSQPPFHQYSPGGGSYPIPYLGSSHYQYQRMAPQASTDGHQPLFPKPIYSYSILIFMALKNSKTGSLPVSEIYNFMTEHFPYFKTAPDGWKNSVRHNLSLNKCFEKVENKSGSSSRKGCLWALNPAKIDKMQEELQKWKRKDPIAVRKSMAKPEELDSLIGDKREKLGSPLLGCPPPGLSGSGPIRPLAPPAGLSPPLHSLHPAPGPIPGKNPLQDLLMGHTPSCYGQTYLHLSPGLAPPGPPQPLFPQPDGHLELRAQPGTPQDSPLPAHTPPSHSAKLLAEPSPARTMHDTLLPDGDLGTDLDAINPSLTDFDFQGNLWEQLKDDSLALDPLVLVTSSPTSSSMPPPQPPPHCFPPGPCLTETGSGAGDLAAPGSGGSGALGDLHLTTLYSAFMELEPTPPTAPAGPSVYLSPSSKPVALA
Experiment: affinity purification with mass spectrometry; Anti-FLAG immunoprecipitation from nuclear lysates of 4D6 cells expressing wild-type-FLAG or Δ550-FLAG FOXN1. Beads treated with 1 mM DSSO, elution with 3x FLAG peptide, LC-MS/MS with label-free quantitation, three replicates each.

Amino acid sequences for entries named in this document (tags omitted).
UniProt Q92793: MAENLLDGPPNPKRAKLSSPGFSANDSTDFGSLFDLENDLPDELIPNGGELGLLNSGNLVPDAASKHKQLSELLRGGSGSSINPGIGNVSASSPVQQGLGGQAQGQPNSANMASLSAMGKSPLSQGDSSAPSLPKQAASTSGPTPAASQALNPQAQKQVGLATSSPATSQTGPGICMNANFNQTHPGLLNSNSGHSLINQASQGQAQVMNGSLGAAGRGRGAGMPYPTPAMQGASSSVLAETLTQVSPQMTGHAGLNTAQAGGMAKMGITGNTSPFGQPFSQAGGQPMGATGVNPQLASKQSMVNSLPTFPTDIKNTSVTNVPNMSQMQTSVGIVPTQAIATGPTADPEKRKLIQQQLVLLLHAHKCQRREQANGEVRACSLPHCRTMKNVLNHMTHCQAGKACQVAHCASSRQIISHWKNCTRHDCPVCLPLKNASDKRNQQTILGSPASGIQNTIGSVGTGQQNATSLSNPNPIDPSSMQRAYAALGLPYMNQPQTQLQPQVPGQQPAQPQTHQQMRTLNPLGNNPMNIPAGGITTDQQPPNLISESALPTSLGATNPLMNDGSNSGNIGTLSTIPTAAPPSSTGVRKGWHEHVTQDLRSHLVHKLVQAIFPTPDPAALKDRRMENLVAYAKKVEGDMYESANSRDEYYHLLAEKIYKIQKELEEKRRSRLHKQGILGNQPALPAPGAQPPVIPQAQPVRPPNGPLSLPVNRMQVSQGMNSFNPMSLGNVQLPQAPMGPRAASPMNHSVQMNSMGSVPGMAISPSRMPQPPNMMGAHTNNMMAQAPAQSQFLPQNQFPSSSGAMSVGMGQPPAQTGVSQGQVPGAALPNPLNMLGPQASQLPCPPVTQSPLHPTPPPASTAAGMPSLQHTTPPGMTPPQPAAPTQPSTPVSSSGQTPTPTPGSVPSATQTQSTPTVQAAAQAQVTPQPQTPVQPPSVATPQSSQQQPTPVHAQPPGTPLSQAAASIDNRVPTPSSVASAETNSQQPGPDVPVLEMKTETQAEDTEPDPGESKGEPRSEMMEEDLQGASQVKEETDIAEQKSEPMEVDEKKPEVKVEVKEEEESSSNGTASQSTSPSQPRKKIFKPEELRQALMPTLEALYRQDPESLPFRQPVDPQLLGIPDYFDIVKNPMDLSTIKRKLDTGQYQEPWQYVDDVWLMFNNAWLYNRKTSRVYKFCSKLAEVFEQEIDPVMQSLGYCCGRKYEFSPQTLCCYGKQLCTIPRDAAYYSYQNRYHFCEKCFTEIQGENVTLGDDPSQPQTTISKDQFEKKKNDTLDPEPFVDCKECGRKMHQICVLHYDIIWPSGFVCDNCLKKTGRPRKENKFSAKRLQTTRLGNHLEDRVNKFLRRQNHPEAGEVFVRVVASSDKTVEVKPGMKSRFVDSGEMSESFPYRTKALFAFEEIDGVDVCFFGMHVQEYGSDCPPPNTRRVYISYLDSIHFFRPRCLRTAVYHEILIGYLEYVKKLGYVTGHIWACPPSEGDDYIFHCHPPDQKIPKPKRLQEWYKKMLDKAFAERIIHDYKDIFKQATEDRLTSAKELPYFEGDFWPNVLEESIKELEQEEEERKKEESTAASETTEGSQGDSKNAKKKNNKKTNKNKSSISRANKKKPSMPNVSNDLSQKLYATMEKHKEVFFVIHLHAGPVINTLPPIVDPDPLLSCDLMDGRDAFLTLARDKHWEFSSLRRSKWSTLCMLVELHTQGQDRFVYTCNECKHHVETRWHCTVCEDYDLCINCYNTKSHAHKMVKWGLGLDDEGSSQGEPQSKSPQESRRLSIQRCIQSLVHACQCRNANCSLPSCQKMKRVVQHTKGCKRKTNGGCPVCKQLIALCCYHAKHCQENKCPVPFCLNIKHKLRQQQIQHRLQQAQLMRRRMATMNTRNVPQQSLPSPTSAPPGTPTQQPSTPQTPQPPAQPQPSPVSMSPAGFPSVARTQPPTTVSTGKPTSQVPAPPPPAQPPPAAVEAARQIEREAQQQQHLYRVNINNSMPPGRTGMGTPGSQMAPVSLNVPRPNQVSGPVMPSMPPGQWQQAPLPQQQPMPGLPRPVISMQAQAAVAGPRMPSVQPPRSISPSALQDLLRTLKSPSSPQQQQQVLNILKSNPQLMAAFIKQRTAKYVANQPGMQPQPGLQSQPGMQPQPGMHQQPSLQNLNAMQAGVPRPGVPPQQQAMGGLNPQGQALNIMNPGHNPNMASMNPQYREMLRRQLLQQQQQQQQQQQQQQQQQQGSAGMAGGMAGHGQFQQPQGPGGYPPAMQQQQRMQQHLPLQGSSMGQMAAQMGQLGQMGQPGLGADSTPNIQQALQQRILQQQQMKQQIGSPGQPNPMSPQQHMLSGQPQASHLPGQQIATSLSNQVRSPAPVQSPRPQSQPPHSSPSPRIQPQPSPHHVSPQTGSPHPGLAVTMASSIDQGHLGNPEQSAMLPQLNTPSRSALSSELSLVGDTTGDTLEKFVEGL
UniProt P67809: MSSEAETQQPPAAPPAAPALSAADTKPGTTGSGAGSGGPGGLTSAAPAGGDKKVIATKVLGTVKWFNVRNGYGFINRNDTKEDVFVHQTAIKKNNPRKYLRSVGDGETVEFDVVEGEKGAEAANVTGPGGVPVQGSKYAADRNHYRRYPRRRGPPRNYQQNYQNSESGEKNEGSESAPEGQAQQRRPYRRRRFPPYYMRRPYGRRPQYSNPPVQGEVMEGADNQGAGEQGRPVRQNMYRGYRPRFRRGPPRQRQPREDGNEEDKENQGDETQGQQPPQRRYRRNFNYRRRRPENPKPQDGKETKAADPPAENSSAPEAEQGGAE

Row | Substance | binding
1 | Creb binding protein (CBP) (from UniProt Q92793 1-2442) | binds
2 | Y box-binding protein 1 (YBX1) (from UniProt P67809 1-324) | binds

Reference: article PMC8641933
